In assay [1] the target is T1, Four-and-a-half LIM domains protein 2 (FHL2), DDK-tagged, expressed in NRK-52E cells (UniProt O35115).
T1 sequence: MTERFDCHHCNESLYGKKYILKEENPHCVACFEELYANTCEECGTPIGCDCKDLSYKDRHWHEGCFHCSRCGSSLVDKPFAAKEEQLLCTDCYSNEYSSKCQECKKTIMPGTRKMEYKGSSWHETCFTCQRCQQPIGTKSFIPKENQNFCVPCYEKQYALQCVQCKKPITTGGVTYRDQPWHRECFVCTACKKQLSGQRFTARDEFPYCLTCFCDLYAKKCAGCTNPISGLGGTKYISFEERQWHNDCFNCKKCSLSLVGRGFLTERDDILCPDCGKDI
Description: co-IP; NRK-52E cells transfected with pFHL2 or empty vector pcDNA3 for 6 h; lysate precleared with normal IgG, incubated with anti-FHL2 (or anti-GSK-3β) at 4 °C overnight, protein A/G Plus-agarose 4 h; immunoblot. For orientation: A western blot detects proteins with antibodies after separation by electrophoresis.

By UniProt entry, the sequences of proteins in these tests, tags left out.
UniProt P18266: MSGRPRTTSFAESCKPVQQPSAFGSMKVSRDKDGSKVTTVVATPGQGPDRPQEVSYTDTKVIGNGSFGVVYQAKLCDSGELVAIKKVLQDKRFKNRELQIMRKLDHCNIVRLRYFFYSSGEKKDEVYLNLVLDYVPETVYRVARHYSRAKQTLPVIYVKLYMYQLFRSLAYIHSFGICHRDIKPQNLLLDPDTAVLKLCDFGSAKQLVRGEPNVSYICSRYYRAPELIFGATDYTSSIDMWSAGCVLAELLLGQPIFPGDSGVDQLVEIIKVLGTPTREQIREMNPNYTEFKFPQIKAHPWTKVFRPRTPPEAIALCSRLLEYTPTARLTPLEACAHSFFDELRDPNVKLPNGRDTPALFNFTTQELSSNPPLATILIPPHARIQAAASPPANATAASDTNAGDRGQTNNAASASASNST
UniProt Q09472: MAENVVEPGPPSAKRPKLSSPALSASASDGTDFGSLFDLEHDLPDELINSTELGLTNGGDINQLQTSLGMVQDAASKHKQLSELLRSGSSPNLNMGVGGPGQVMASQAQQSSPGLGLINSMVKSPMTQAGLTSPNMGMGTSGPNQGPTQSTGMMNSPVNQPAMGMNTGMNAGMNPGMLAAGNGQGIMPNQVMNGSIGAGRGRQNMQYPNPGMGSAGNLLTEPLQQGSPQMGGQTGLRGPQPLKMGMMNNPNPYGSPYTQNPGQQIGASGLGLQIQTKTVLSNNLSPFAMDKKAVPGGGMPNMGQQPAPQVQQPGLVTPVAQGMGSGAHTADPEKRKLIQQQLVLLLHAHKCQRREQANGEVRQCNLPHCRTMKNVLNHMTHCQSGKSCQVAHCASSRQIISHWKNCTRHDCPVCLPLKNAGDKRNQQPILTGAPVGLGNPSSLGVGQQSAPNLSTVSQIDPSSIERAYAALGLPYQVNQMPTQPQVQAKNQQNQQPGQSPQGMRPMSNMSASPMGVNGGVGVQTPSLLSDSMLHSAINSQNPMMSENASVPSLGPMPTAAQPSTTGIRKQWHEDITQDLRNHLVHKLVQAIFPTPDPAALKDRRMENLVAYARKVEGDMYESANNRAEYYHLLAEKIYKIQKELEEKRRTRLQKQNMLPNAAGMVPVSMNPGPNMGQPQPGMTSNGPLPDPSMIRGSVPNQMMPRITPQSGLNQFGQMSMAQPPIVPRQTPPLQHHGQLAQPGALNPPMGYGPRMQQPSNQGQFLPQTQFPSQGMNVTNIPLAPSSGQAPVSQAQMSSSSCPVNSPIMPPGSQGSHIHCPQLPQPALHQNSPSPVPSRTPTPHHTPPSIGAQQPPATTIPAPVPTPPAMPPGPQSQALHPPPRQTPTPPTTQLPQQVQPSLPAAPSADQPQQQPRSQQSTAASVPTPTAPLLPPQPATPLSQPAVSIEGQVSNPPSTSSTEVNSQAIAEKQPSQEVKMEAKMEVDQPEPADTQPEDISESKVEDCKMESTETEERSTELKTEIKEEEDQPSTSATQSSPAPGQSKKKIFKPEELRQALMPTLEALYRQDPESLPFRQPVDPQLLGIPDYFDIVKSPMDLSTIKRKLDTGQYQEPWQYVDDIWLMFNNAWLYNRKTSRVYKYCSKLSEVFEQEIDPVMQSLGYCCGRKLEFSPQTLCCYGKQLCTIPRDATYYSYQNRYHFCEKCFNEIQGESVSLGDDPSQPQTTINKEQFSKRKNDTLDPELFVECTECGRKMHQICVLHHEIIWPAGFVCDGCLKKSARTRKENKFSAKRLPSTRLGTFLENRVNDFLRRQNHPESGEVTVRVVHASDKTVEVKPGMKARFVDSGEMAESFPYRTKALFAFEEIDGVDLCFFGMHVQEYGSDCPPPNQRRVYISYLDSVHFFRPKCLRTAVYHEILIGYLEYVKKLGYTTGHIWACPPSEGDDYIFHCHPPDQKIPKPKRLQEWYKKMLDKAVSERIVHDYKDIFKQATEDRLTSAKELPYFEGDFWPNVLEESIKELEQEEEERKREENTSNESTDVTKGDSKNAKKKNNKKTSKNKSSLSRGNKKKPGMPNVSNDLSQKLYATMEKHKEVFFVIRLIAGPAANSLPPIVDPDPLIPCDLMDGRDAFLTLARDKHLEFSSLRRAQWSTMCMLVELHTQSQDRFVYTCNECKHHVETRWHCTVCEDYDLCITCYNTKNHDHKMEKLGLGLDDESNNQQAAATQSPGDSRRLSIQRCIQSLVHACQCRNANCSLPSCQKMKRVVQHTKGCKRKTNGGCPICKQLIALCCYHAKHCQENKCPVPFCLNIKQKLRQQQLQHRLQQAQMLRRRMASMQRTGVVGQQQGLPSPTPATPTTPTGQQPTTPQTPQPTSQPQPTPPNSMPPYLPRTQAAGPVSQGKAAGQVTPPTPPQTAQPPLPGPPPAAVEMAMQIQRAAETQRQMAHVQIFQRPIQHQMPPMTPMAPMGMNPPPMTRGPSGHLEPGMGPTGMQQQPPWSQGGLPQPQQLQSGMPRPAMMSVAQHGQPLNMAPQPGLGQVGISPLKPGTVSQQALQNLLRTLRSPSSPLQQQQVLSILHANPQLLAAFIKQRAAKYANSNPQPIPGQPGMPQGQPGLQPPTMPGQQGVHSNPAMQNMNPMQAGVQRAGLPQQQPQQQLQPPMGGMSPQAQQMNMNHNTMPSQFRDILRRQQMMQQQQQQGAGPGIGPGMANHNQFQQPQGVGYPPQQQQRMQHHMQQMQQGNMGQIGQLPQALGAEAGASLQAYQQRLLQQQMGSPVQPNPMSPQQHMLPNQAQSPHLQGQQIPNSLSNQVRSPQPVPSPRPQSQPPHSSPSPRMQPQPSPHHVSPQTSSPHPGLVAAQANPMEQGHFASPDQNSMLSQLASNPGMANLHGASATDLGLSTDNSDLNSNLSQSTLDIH
UniProt O35800: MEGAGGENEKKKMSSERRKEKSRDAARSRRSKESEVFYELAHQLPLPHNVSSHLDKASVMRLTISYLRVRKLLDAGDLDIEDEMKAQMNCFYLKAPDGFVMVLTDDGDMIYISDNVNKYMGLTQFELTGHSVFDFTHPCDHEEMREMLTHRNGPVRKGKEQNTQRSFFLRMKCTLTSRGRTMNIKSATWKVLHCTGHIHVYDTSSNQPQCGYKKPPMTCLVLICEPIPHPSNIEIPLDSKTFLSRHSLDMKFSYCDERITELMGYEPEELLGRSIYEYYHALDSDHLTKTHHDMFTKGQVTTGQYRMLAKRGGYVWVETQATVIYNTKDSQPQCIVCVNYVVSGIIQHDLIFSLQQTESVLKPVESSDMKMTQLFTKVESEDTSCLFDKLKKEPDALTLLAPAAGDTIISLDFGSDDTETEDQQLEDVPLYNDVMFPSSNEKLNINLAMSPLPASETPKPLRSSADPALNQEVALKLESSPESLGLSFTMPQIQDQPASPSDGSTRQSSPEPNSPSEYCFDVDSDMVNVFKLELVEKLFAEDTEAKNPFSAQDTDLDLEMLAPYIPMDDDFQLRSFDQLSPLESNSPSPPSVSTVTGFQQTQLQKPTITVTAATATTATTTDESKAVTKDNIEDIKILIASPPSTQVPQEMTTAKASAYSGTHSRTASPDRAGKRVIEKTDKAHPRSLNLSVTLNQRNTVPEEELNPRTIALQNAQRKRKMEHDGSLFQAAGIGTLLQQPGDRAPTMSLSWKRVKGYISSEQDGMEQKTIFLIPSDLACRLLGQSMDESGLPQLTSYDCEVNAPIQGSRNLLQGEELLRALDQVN

In assay [2] the target is T2, Four-and-a-half LIM domains protein 2 (FHL2), DDK-tagged, expressed in HEK293 cells (UniProt O35115).
T2 sequence: T1 sequence
Description: co-IP; HEK293 cells co-transfected with myc-tagged p300 and DDK-tagged FHL2 or pcDNA3; lysate immunoprecipitated with anti-myc or anti-DDK at 4 °C overnight, protein A/G Plus-agarose; immunoblot for DDK or myc.

The target of assay [3] is glycogen synthetic kinase 3β (GSK-3β) (rat (endogenous in NRK-52E)) (UniProt P18266). Description: co-IP; NRK-52E cells transfected with pFHL2 or empty vector pcDNA3 for 6 h; lysate precleared with normal IgG, incubated with anti-FHL2 (or anti-GSK-3β) at 4 °C overnight, protein A/G Plus-agarose 4 h; immunoblot.
For the next assay, the target named is p300, myc-tagged (UniProt Q09472). Briefly: co-IP; HEK293 cells co-transfected with myc-tagged p300 and DDK-tagged FHL2 or pcDNA3; lysate immunoprecipitated with anti-myc or anti-DDK at 4 °C overnight, protein A/G Plus-agarose; immunoblot for DDK or myc.

No constants are given. Whether binding was seen depends on the method and setting. In cells and extracts the contact can be indirect. Some results given as binding are weak or reduced against the parent protein; the word gives no strength. Sequences can lack the tags named with a protein.

“glycogen synthetic kinase 3β (GSK-3β) (from UniProt P18266 1-420) (enzyme)”: in assay [1], the binding entry is “binds”. On to “hypoxia inducible factor 1α (HIF-1α) (from UniProt O35800 1-825)”, for which the binding result in assay [1] was “binds”.

For the molecule “p300, myc-tagged (from UniProt Q09472 1-2414) (enzyme)”, the binding entry in assay [2] is on record as “binds”.

B1: Four-and-a-half LIM domains protein 2 (FHL2), DDK-tagged, expressed in NRK-52E cells (protein, UniProt O35115 1-279)
chain: T1 sequence
In the case of B1, the binding result in assay [3] was “binds”.

B2: Four-and-a-half LIM domains protein 2 (FHL2), DDK-tagged, expressed in HEK293 cells (protein, UniProt O35115 1-279)
chain: T1 sequence
For the molecule B2, the binding result in the assay with p300, myc-tagged is given as “binds”.

B3: β-catenin (protein, UniProt Q9WU82 1-781)
chain: MATQADLMELDMAMEPDRKAAVSHWQQQSYLDSGIHSGATTTAPSLSGKGNPEEEDVDTSQVLYEWEQGFSQSFTQEQVADIDGQYAMTRAQRVRAAMFPETLDEGMQIPSTQFDAAHPTNVQRLAEPSQMLKHAVVNLINYQDDAELATRAIPELTKLLNDEDQVVVNKAAVMVHQLSKKEASRHAIMRSPQMVSAIVRTMQNTNDVETARCTAGTLHNLSHHREGLLAIFKSGGIPALVKMLGSPVDSVLFYAITTLHNLLLHQEGAKMAVRLAGGLQKMVALLNKTNVKFLAITTDCLQILAYGNQESKLIILASGGPQALVNIMRTYTYEKLLWTTSRVLKVLSVCSSNKPAIVEAGGMQALGPHLTDPSQRLVQNCLWTLRNLSDAATKQEGMEGLLGTLVQLLGSDDINVVTCAAGILSNLTCNNYKNKMMVCQVGGIEALVRTVLRAGDREDITEPAICALRHLTSRHQEAEMAQNAVRLHYGLPVVVKLLHPPSHWPLIKATVGLIRNLALCPANHAPLREQGAIPRLVQLLVRAHQDTQRRTSMGGTQQQFVEGVRMEEIVEGCTGALHILARDVHNRIVIRGLNTIPLFVQLLYSPIENIQRVAAGVLCELAQDKEAAEAIEAEGATAPLTELLHSRNEGVATYAAAVLFRMSEDKPQDYKKRLSVELTSSLFRTEPMAWNETADLGLDIGAQGEALGYRQDDPSYRSFHSGGYGQDALGMDPMMEHEMGGHHPGADYPVDGLPDLGHAQDLMDGLPPGDSNQLAWFDTDL
Regarding B3, the binding result in assay [1] is on record as “binds”.
